These are yes or no findings as the source states them, for the method shown. A result given as binding can be weak or reduced; the word gives no strength.
B1: SEQ ID NO 141 (designed binder)
chain: NVSPPRRARVTDATETTITISWRTKTETITAFYVQAYPYSDHSIQRTIKPDVRSYTITGLQPGTYYDITLSTLRSYYYRPVVIDAST
B2: SEQ ID NO 140 (designed binder)
chain: NVSPPRRARVTDATETTITISWRTKTETITSFGVTAKPVWSWGSIQRTIKPDVRSYTITGLQPGTGYAISLYTLLRYWYRYYPVVIDAST
B3: SEQ ID NO 139 (designed binder)
chain: NVSPPRRARVTDATETTITISWRTKTETITRFYVEATPSAAANTSIQRTIKPDVRSYTITGLQPGTMYQIWLATLSYYASHYPVVIDAST

What follows are binders tested against lysozyme (assay: cradle library selection hit).

binding, binds:
B1
B2
B3
